Patent publication US20240279281A1 (Janssen Pharmaceutica NV, priority 2023, published 2024)

Experiment: general procedure: Fmoc solid-phase peptide synthesis; Rink-amide MBHA resin or CTC resin; HATU/DIEA; DIC/Oxyma on the synthesizer
Settings: for cyclisation yield: cyclisation step; for final HPLC purity / isolated yield: whole synthesis; for final HPLC purity: analysis on a C18 column, flow rate 1 mL/min; for isolated yield: overall
[1] = for this step, one disulfide bridge

Substance | cyclisation yield [1] | final HPLC purity (one disulfide bridge) | isolated yield (one disulfide bridge) | cyclisation yield (one disulfide bridge) | cyclisation yield (for this step, bicyclic) | final HPLC purity (bicyclic) | isolated yield (bicyclic)
MeCO-r-Pen(3)-N-T-7MeW-K(Ac)-Pen(3)-AEF-6OH2Nal-THP-E-N-3Pya-Sar-K(PEG2NMePEG2NMegENMeCl8Tetrazole)-CONH2 | 8.08% yield for this step | 96.1% purity | over all yield: 6.08% |  |  |  | 
MeCO-r-Pen(3)-N-T-7MeW-K(Ac)-Pen(3)-AEF-6OH2Nal-THP-E-N-3Pya-Sar-K(PEG2PEG2gEC18OH)—CONH2 | 12.1% yield for this step | 93.2% purity | over all yield: 10.4% |  |  |  | 
cPEG3aCO-Pen(3)-N-T-7MeW-K(NMecPEG3a)-Pen(3)-AEF-6OH2Nal-THP-K(NMecPEG3a)-N-3Pya-Sar-CONH2 | 11.7% yield for this step | 96.9% purity | over all yield: 9.54% yield |  |  |  | 
MeCO-k(d)-Pen(3)-N-T-7MeW-K(Ac)-Pen(3)-AEF-6OH2Nal-THP-E-N-3Pya-Sar-CONH2 |  |  |  | Yield=31% |  |  | 
MeCO-Pen(3)-N(N(Me)2)-T-7MeW-Dab(NMecarn)-Pen(3)-AEF-6OH2Nal-THP-Dab(NMecarn)-N-3Pya-Sar-CON(Me)2 |  |  |  | Yield=23% |  |  | 
MeCO-Pen(3)-E(2)-T-7MeW-K(Ac)-Pen(3)-AEF(2)-6OH2Nal-THP-K(Ac)-N-3Pya-Sar-CONH2 |  |  |  |  | 8.28% yield for this step | 98.2% purity | over all yield: 7.41%
MeCO-r-Pen(3)-N-T-7(3NAcPh)W-K(Ac)-Pen(3)-AEF-6OH2Nal-THP-E-N-3Pya-Sar-CONH2 | 26.0% yield for this step | 90.8% purity | over all yield: 21.4% |  |  |  | 
MeCO-Pen(3)-N-T-7MeW-K(Ac)-Pen(3)-AEF-6OH2Nal-THP-E-N-3Pya-Sar-K(PEG2PEG2gEC18OH)—CONH2 | 12.9% yield for this step | 96.1% purity | over all yield: 10.6% |  |  |  | 
